Results reported in the supplement of paper PMC10849652.
The other results are listed elsewhere or left out.

Chains of the proteins cited; added tags and fusions are not shown. Lines headed by an entry give the natural chain unless they say otherwise; changes in a name come on top.
UniProt Q9H9S3, whole entry, looked up: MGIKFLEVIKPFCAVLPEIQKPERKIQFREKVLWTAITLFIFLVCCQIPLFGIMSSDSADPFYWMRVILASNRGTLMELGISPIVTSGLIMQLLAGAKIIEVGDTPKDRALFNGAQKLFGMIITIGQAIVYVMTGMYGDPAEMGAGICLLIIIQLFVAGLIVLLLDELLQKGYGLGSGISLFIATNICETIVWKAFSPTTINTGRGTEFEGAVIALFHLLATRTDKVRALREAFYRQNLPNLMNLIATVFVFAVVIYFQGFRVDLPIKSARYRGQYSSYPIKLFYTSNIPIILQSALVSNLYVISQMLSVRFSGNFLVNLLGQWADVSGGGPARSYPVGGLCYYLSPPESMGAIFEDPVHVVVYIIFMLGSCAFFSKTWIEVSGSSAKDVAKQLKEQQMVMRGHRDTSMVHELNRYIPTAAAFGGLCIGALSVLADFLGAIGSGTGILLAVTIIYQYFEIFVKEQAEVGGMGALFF
UniProt O95470: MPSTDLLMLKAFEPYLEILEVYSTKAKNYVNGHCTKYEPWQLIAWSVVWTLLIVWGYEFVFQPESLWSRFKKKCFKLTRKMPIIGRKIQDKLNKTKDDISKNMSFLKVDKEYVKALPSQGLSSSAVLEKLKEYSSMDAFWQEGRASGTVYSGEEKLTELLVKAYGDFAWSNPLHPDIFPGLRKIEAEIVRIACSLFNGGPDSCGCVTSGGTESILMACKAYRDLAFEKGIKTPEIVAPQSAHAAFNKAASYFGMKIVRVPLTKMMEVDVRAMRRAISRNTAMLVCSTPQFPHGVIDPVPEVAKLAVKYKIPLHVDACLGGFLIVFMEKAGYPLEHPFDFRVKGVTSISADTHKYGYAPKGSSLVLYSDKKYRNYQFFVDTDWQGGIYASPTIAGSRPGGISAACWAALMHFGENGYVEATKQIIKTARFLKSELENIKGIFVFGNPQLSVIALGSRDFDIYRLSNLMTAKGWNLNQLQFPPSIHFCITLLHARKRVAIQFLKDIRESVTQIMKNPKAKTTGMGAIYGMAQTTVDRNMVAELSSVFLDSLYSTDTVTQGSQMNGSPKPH
UniProt Q96FS4: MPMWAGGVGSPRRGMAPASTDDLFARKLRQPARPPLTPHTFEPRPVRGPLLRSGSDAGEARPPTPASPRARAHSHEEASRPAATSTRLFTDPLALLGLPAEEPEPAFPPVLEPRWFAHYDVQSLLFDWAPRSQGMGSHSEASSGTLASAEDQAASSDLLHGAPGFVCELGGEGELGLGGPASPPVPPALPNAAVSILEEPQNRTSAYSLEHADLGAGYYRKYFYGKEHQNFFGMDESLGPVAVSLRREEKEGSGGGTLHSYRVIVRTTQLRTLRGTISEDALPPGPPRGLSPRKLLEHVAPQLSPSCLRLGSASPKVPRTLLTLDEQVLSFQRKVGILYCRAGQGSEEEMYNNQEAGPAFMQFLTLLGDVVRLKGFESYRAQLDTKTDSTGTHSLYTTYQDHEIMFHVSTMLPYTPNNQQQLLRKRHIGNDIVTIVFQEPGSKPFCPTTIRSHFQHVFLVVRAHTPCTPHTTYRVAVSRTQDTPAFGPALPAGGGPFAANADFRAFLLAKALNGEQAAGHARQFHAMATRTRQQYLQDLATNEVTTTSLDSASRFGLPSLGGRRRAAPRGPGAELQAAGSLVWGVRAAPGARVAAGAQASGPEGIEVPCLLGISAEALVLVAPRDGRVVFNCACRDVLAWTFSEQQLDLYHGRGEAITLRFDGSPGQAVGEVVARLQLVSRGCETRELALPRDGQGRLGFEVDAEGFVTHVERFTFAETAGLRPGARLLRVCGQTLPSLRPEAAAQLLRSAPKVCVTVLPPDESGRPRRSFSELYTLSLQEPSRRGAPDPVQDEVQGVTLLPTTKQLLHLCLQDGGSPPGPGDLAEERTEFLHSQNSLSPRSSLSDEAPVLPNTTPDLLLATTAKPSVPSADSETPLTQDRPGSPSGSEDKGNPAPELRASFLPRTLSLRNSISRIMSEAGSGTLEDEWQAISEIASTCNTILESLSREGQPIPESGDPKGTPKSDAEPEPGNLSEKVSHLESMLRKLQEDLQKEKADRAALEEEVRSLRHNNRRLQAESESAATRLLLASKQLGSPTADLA
UniProt Q8IZQ5, whole entry, looked up: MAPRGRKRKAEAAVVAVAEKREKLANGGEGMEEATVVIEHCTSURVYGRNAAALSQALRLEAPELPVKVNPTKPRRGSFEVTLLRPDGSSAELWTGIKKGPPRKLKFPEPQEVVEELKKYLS
UniProt Q9NPR2: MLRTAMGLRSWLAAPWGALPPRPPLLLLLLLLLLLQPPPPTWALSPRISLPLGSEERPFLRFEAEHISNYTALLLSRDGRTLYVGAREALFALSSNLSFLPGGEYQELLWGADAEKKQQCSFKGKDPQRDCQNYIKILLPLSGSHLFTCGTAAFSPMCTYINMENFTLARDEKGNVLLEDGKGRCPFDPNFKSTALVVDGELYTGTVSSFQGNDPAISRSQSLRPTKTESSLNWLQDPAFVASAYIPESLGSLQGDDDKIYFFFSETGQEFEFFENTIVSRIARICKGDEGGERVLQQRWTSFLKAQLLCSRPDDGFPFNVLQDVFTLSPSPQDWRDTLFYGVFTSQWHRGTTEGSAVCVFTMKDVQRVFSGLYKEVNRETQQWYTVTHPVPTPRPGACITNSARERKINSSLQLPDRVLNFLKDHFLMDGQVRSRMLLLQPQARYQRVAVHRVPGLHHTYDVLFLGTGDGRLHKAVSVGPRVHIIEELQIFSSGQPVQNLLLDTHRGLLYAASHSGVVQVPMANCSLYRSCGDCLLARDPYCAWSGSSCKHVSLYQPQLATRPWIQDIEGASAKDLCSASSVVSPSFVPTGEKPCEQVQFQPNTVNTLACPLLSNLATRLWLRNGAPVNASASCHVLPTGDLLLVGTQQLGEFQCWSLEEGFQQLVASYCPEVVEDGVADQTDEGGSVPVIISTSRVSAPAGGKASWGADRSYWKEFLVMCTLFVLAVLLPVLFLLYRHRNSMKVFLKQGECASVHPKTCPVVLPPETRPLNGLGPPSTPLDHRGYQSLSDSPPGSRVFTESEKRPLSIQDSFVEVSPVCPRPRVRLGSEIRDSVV
UniProt Q15637: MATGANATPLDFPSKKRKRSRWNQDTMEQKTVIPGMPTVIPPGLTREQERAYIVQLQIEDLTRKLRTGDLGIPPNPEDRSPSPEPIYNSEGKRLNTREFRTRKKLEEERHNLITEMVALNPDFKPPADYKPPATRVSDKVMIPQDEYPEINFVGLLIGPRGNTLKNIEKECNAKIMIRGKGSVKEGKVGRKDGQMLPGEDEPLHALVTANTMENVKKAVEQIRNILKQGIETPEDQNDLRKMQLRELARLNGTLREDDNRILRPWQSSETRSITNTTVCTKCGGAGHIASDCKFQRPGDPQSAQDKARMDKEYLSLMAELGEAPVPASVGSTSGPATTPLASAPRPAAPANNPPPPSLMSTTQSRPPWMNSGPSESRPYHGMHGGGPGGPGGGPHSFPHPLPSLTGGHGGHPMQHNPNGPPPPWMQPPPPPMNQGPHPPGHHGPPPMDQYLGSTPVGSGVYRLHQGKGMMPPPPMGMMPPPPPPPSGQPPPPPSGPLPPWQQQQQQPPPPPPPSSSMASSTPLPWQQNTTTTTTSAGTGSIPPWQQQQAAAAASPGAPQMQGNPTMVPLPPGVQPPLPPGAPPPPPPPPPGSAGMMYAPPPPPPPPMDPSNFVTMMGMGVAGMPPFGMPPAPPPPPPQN
UniProt P63208, whole entry, looked up: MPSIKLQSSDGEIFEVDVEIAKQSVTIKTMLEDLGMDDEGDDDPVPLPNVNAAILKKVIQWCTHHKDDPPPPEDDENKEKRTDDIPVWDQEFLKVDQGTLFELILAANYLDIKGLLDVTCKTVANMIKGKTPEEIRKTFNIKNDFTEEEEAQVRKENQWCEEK

How the values were obtained:
Experiment in all cases: log2 fold change, soluble protein after heating vs DMSO (PISA); higher = thermal stabilisation; K562 cells, 10 uM, 30 min; active = over 0.2 and 3.5 SD of the protein, either way, in both replicates (recomputed)
[1] = compound: CS(=O)(=O)c1ccc(-c2cnc(N)c(C(=O)Nc3ccccc3)n2)cc1
In short: (§1)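 K562 cells at 2×10^6 cells/mL were treated for 30 min with 10 μM compound, and aliquots were heated for 3 min over 48°C-58°C before pooling. Extraction used PBS with 0.5% NP-40 at 4°C, and soluble protein was the supernatant after 21,000xg for 90 min, measured by TMTpro 16plex LC-MS/MS with channel sums equalised. Thermal stability values, relative to control samples and from duplicates, are log2 fold changes.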

crizotinib = compound: C[C@@H](Oc1cc(-c2cnn(C3CCNCC3)c2)cnc1N)c1c(Cl)ccc(F)c1Cl [crizotinib]
In short: as §1

[2] = compound: C[C@@H]1COCCN1C2=NC(=NC(=C2)C3(CC3)S(=O)(=O)C)C4=C5C=CNC5=CC=C4
In short: as §1

[3] = compound: C[C@H](C1=CC=C(C=C1)C(=O)NC2=C3C=CNC3=NC=C2)N
In short: as §1

duvelisib = compound: C[C@H](Nc1ncnc2nc[nH]c12)c1cc2cccc(Cl)c2c(=O)n1-c1ccccc1 [duvelisib]
In short: as §1

gandotinib = compound: Cc1cc(Nc2cc(CN3CCOCC3)c3nc(C)c(Cc4ccc(Cl)cc4F)n3n2)n[nH]1 [gandotinib]
In short: as §1

tozasertib = compound: Cc1cc(Nc2cc(N3CCN(C)CC3)nc(Sc3ccc(NC(=O)C4CC4)cc3)n2)n[nH]1 [tozasertib]
In short: as §1

[4] = compound: Cc1cc(SCc2sc(-c3ccc(C(F)(F)F)cc3)nc2C)ccc1OCC(=O)O
In short: as §1

doramapimod = compound: Cc1ccc(-n2nc(C(C)(C)C)cc2NC(=O)Nc2ccc(OCCN3CCOCC3)c3ccccc23)cc1 [doramapimod]
In short: as §1

ispinesib = compound: Cc1ccc(C(=O)N(CCCN)[C@@H](c2nc3cc(Cl)ccc3c(=O)n2Cc2ccccc2)C(C)C)cc1 [ispinesib]
In short: as §1

bafetinib = compound: Cc1ccc(NC(=O)c2ccc(CN3CC[C@H](N(C)C)C3)c(C(F)(F)F)c2)cc1Nc1nccc(-c2cncnc2)n1 [bafetinib]
In short: as §1

[5] = compound: Cc1cccc(CC(=O)N2CCc3c2ccc(-c2cn(C)c4ncnc(N)c24)c3F)n1
In short: as §1

nilotinib = compound: Cc1cn(-c2cc(NC(=O)c3ccc(C)c(Nc4nccc(-c5cccnc5)n4)c3)cc(C(F)(F)F)c2)cn1 [nilotinib]
In short: as §1

[6] = compound: Cc1nc(Nc2n[nH]c3c2CN(C(=O)N[C@H](CN(C)C)c2ccccc2)C3(C)C)c2sccc2n1
In short: as §1

dasatinib = compound: Cc1nc(Nc2ncc(C(=O)Nc3c(C)cccc3Cl)s2)cc(N2CCN(CCO)CC2)n1 [dasatinib]
In short: as §1

[7] = compound: Cc1ncc(-c2ccnc(Nc3ccc(S(C)(=O)=O)cc3)n2)n1C(C)C
In short: as §1

[8] = compound: Cn1cc(-c2ccc3c(c2)CCN3C(=O)Cc2cccc(C(F)(F)F)c2)c2c(N)ncnc21
In short: as §1

[9] = compound: Cn1cc(-c2ccc3nnc(C(F)(F)c4ccc5ncccc5c4)n3n2)cn1
In short: as §1

tipifarnib = compound: Cn1cncc1[C@@](N)(c1ccc(Cl)cc1)c1ccc2c(c1)c(-c1cccc(Cl)c1)cc(=O)n2C [tipifarnib]
In short: as §1

mubritinib = compound: FC(F)(F)c1ccc(/C=C/c2nc(COc3ccc(CCCCn4ccnn4)cc3)co2)cc1 [mubritinib]
In short: as §1

Target	log2 fold change [1]	log2 fold change (crizotinib)	log2 fold change [2]	log2 fold change [3]	log2 fold change (duvelisib)	log2 fold change (gandotinib)	log2 fold change (tozasertib)	log2 fold change [4]	log2 fold change (doramapimod)	log2 fold change (ispinesib)	log2 fold change (bafetinib)	log2 fold change [5]	log2 fold change (nilotinib)	log2 fold change [6]	log2 fold change (dasatinib)	log2 fold change [7]	log2 fold change [8]	log2 fold change [9]	log2 fold change (tipifarnib)	log2 fold change (mubritinib)
SEC61A2 (UniProt Q9H9S3)	inactive: -0.025	inactive: 0.106	inactive: 0.056	inactive: -0.125	inactive: 0.015	inactive: -0.08	inactive: 0.035	inactive: -0.036	inactive: 0.004	inactive: 0.016	inactive: -0.009	inactive: 0.013	inactive: -0.029	inactive: -0.006	inactive: 0.068	inactive: -0.016	inactive: 0.022	inactive: -0.018	inactive: 0.031	inactive: 0.004
SGPL1 (UniProt O95470)	inactive: 0.095	inactive: 0.077	inactive: -0.034	inactive: 0.011	–	inactive: 0.259	–	inactive: 0.024	inactive: 0.084	inactive: 0.077	inactive: 0.009	inactive: -0.013	inactive: 0.024	inactive: -0.017	inactive: 0.016	inactive: -0.029	inactive: -0.005	inactive: -0.071	inactive: 0.151	inactive: 0.034
SIPA1 (UniProt Q96FS4)	inactive: 0.001	inactive: -0.001	inactive: 0.012	inactive: 0.01	inactive: -0.014	inactive: 0.038	inactive: -0.02	inactive: 0.045	inactive: -0.028	inactive: -0.044	inactive: -0.013	inactive: 0.041	inactive: -0.112	inactive: -0.005	inactive: -0.013	inactive: -0.104	inactive: 0.004	inactive: -0.022	inactive: -0.043	inactive: 0.019
SELENOH (UniProt Q8IZQ5)	inactive: -0.19	inactive: 0	inactive: -0.014	inactive: -0.022	–	inactive: -0.12	–	inactive: -0.051	inactive: -0.018	inactive: 0.036	inactive: 0.042	inactive: 0.21	inactive: -0.02	inactive: 0.011	inactive: 0.076	inactive: 0.012	inactive: -0.039	inactive: 0.036	inactive: -0.01	inactive: -0.009
SEMA4B (UniProt Q9NPR2)	inactive: 0.039	inactive: -0.195	inactive: -0.143	inactive: 0.045	inactive: -0.013	inactive: -0.032	inactive: -0.012	inactive: -0.044	inactive: 0.074	inactive: -0.277	inactive: 0.028	inactive: -0.014	inactive: 0.015	inactive: -0.198	inactive: -0.024	inactive: 0.035	inactive: 0.085	inactive: -0.314	inactive: 0.071	inactive: 0.163
SF1 isoform 5 (UniProt Q15637)	inactive: 0.003	inactive: 0.05	inactive: -0.041	inactive: -0.04	inactive: -0.008	inactive: 0.061	inactive: -0.013	inactive: -0.025	inactive: -0.047	inactive: 0.046	inactive: -0.055	inactive: -0.013	inactive: 0.017	inactive: -0.001	inactive: 0.063	inactive: -0.021	inactive: 0.019	inactive: 0.012	inactive: -0.027	inactive: 0.005
SLAIN2 (UniProt Q9P270)	inactive: -0.039	inactive: -0.024	inactive: 0.012	inactive: -0.022	inactive: -0.062	inactive: -0.096	inactive: -0.016	inactive: 0.018	inactive: 0.019	inactive: -0.048	inactive: 0.106	inactive: 0.057	inactive: 0.023	inactive: -0.026	inactive: 0.124	inactive: -0.185	inactive: -0.004	inactive: -0.051	inactive: 0.037	inactive: -0.017
SKP1 (UniProt P63208)	inactive: -0.052	inactive: 0.027	inactive: -0.039	inactive: -0.19	–	inactive: -0.035	–	inactive: 0.038	inactive: -0.096	inactive: 0.089	inactive: -0.003	active: 0.289	inactive: 0.024	inactive: -0.011	inactive: 0.007	inactive: 0.012	inactive: 0.047	inactive: -0.017	inactive: -0.06	inactive: -0.001

Two neighbouring entries already listed, for reference:
Target	log2 fold change [1]	log2 fold change (crizotinib)	log2 fold change [2]	log2 fold change [3]	log2 fold change (duvelisib)	log2 fold change (gandotinib)	log2 fold change (tozasertib)	log2 fold change [4]	log2 fold change (doramapimod)	log2 fold change (ispinesib)	log2 fold change (bafetinib)	log2 fold change [5]	log2 fold change (nilotinib)	log2 fold change [6]	log2 fold change (dasatinib)	log2 fold change [7]	log2 fold change [8]	log2 fold change [9]	log2 fold change (tipifarnib)	log2 fold change (mubritinib)
SEC61A2 (UniProt Q9H9S3)	inactive: -0.025	inactive: 0.106	inactive: 0.056	inactive: -0.125	inactive: 0.015	inactive: -0.08	inactive: 0.035	inactive: -0.036	inactive: 0.004	inactive: 0.016	inactive: -0.009	inactive: 0.013	inactive: -0.029	inactive: -0.006	inactive: 0.068	inactive: -0.016	inactive: 0.022	inactive: -0.018	inactive: 0.031	inactive: 0.004
SGPL1 (UniProt O95470)	inactive: 0.095	inactive: 0.077	inactive: -0.034	inactive: 0.011	–	inactive: 0.259	–	inactive: 0.024	inactive: 0.084	inactive: 0.077	inactive: 0.009	inactive: -0.013	inactive: 0.024	inactive: -0.017	inactive: 0.016	inactive: -0.029	inactive: -0.005	inactive: -0.071	inactive: 0.151	inactive: 0.034
